Reference: PMC2944796
No constants are given. Whether binding was seen depends on the method and setting. In cells and extracts the contact can be indirect. A yes stands for co-enrichment or nearness to the bait. Other partners may have been found.

B1: protein encoded by NCU07855 (protein, UniProt Q7SBV3 1-555)
chain: MEAHAQPQRSRKRPSRTTRVPDAGNGASAAAAAQGPGVVPVSQGWGQHPVQSQHQHTVQHGVPQHSQHAHQTHQVQQPHPGAHPHQAHHQQVQVQHQHQHQHPQAVRAHPDTVSAQPPTFASQQLDTRSHQVPADPDGLMNGYNAPQHQQYADPPSSSLAPAPQPDNSGLTSLSNLTGDNGASHQQHHQQRSQHQQLQLQHHAQQQQQQQQQQQQQVQQQQQAQQAQQQQQQQQQRTSVAPSSTTDRVNFNTYPNHSAPNDSSPSPVTVATSSAGYNNLSGWTQPVANSTAQSTMPPPSPAPALAPPPEGIYRTFEDLLASVQKVAKDQGYGVVKLRASNYREGKPTRYDLVCDRGGVKYSSTAKKRNPSTRKVDCPWRAKAVCEVNLGNQWRFAVQEARHNHEPRIPAAVPGQENTPIAQSIRSITNKIDRLQHDQTTSFQRLEANVSTILARIDNMEKRLDAIESGRPSMLGGNGVPSMGTPSMPTANMGGGNLGNGPMTNGGMSGGHIVDTRLNSMEARMNAMEQRGNPMDGLPMMDDDTGRLAMNQMMVST
B2: protein encoded by NCU06123 (protein, UniProt Q7S5G5 1-827)
chain: MSDSNELEVESISPFGPARSTIKGEPLTKEEIDKFNDFFKASLYLSLGMIYLRDNPLLKEPLDTKHLKARLLGHFGSAPGQIFTWMHFNRLIKKYDLDSIFISGPGHGAPAVLSQAYLEGTYSEVYPEISEDEEGMQKFFKHFSFPGGIGSHATPETPGSIHEGGELGYSISHAFGAVFDHPNLIALTMVGDGEAETGPLATSWHSTKFLNPITDGAVLPVLHLNGYKINNPTILARISHKELENLFRGYGYEPYFVEGDDVDTMHQAMAATLEHCVLEIRKFQQKARESGKAFRPRWPVIILRSPKGWTGPRKIDDKFLEGFWRAHQVPITDVHEKPEHLKILEQWMKSYEPDRIFRDGRISEDLKDLCPTGTRRMSANPVANGGIIRKTLRMPDFRNYALKVDKPASIMAASMTNMSMFLRDVIAGNPTTFRLFGPDETESNKLGKVYEAGKKVWLGEYFEEDKDGGNLAPEGRVMEMLSEHTCEGWLEGYILTGRHGLLNSYEPFIHVIDSMVNQHCKWLEKCLEVEWRHKVASLNILLTAVVWRQDHNGFTHQDPGFLDVVANKSPEIVRIYLPPDGNCLLSVTDHCLRSSNYVNVIVADKQEHLQYLSMDDATIHCTKGIGIWPQFSSDRGEEPDLVMASCGDISTHESLAAIDLLLQHFPELKIRCVNCVDLFKLISHDEHPHGLTDAEWISLFTDNRPIIFNFHSYPWLVHRLTYKRPGSHNVHVRGYREKGNIDTPLELAIRNGTDRFSLAMAAIDHMTGILGNRGAAAREQLRNEQLKAKAMAFEVGMDPPFLKNWTWPHTGLWSKGEARVASEQHLH
B3: DIM-5 (enzyme, UniProt Q8X225 1-331)
chain: MEKAFRPHFFNHGKPDANPKEKKNCHWCQIRSFATHAQLPISIVNREDDAFLNPNFRFIDHSIIGKNVPVADQSFRVGCSCASDEECMYSTCQCLDEMAPDSDEEADPYTRKKRFAYYSQGAKKGLLRDRVLQSQEPIYECHQGCACSKDCPNRVVERGRTVPLQIFRTKDRGWGVKCPVNIKRGQFVDRYLGEIITSEEADRRRAESTIARRKDVYLFALDKFSDPDSLDPLLAGQPLEVDGEYMSGPTRFINHSCDPNMAIFARVGDHADKHIHDLALFAIKDIPKGTELTFDYVNGLTGLESDAHDPSKISEMTKCLCGTAKCRGYLW
B4: NCU04152 (DIM-7) (protein, UniProt Q1K7K7 1-666)
chain: MAGPGRPRRRRGSSASIDSTDDRRRRWTRELAILKPVTPGTSDDLWPYFAVLTDATIYQKDGKTLANPLHVDLEGPFIVRGKLEPVEDGDDEARECFHKPYNKATYIEISRSERYSIGYEPNTLWVSGASGWFEIIPSRKYETMYNEVMEAITLYYGIMGPYEEHKRLLKKADKKKRKDVKPPSLDEIFFSYALTAGDGAVTVKEEVEARCLKWAQFLLAHFPKESEIRWQDTGFAAWLQSARPDLQKKISDVAAGLLTKPAAEPEGLLARDDHSPQPQSLAIREPPKGGRTTRTSRQASELSDQRSDKGKGIARDSPVETPIPAPVSNRHLSSSSPRPRASPAVITGSDDLPDDPVDRLIVLLGEVAQRIDIKTVKMSKINSDLFYNCRIKYYNAARELCEHFAKDLLERLPPMWDNTPYRAWLEDVVENGRPAPVEFVVEDIPQYLTRRTRRQTHISRLSSALGPTPSVEAESKDEVRAGKQPRVGRPSGKVATLRVAGSKRLASDMIDEDELPPRRGRKALKRTVRVEEDEDSDANSVIIDMTDNTGVIPKDAVRIVVQAERLPTMSPAGPNGTWTCDQEGCNYVVRSADEPEGQDLISKHFKDHEEQAQKINLAMEESKAGHLPINHLLDKIQAMGKNALAKKRGSLNGEPLPLPIKRRLLI

target: Myc-His-DCAF26 (N. crassa); assay: affinity purification with mass spectrometry; Myc-His-DCAF26 from the dcaf26^KO, qa-Myc-His-DCAF26 strain purified on a nickel column, then c-Myc antibody agarose; SDS-PAGE, silver stain, excised bands by LC-MS/MS; wild-type strain as negative control

binding, binds:
B1
B2
B3
B4
